Laboratory results published in article PMC6155239, “Targeting PFKFB3 radiosensitizes cancer cells and suppresses homologous recombination” (Nature Communications, 2018).

System: 97 kinases of the scanEDGE set
Test: DiscoveRx KINOMEscan scanEDGE panel
Assay type: binding
Conditions: 2 µM

`O=C(O)c1ccc(NS(=O)(=O)c2cccc(-c3cc(F)ccc3O)c2)cc1O` [KAN0438241, 4-{[(5′-Fluoro-2′-hydroxybiphenyl-3-yl)sulfonyl]amino}-2-hydroxybenzoic acid] was tested. Which “SScore(35)” value did it give?
The value was 0.

For `O=C(OCCO)c1ccc(NS(=O)(=O)c2cccc(-c3cc(F)ccc3O)c2)cc1O` [KAN0438757, 2-Hydroxyethyl-4-{[(5′-fluoro-2′-hydroxybiphenyl-3-yl)sulfonyl]amino}-2-hydroxybenzoate], which “SScore(35)” value is on record?
Its value is 0.
